From publication PMC9484684
These are yes or no findings as the source states them, for the method shown. Binding can be weak; no strength is given. Tags and fused reporters may be left off the sequences shown. For some of these results: Binding seen in cells or lysates may run through a third protein.

Legend:
[1] = biological target: T1, Drosophila Lin28, yeast two-hybrid fusion (Drosophila) (UniProt Q9VRN5); test: two-hybrid; Gal4 TAD and LexA DBD fusions in yeast strain YPH500 with the lexAop-LacZ reporter pSH18-34; X-gal plates and beta-galactosidase liquid assay
T1 sequence: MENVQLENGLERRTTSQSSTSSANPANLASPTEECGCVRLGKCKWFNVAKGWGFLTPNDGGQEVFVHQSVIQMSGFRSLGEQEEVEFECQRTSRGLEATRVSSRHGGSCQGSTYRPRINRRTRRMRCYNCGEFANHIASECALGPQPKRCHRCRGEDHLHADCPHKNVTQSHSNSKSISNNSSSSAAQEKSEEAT

[2] = biological target: T2, HA-tagged Lin28 (Drosophila) (UniProt Q9VRN5); test: co-IP; S2 cells co-transfected with HA-Lin28 and FLAG-Imp, lysed in RIPA buffer without SDS; precipitation with anti-Flag or anti-HA antibody and Protein A/G beads, western blot with Lin28 or Imp antibody; also after RNase treatment of the lysate (100 ug/ml, 30 minutes)
T2 sequence: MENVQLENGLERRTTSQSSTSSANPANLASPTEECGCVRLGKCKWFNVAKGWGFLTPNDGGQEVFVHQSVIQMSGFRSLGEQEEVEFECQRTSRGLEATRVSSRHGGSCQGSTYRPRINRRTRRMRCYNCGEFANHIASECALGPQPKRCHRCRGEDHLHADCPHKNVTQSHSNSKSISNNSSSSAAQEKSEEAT

[3] = biological target: Drosophila IGF2 mRNA binding protein (Imp), yeast two-hybrid fusion (Drosophila); test: two-hybrid; Gal4 TAD and LexA DBD fusions in yeast strain YPH500 with the lexAop-LacZ reporter pSH18-34; X-gal plates and beta-galactosidase liquid assay
[4] = biological target: Flag-tagged Imp (Drosophila); test: co-IP; S2 cells co-transfected with HA-Lin28 and FLAG-Imp, lysed in RIPA buffer without SDS; precipitation with anti-Flag or anti-HA antibody and Protein A/G beads, western blot with Lin28 or Imp antibody; also after RNase treatment of the lysate (100 ug/ml, 30 minutes)

## Drosophila IGF2 mRNA binding protein (Imp), yeast two-hybrid fusion
[1]
  binding: binds

## Flag-tagged Imp (Drosophila)
[2]
  binding: binds

B1: Drosophila Lin28, yeast two-hybrid fusion (protein, UniProt Q9VRN5 1-195)
chain: MENVQLENGLERRTTSQSSTSSANPANLASPTEECGCVRLGKCKWFNVAKGWGFLTPNDGGQEVFVHQSVIQMSGFRSLGEQEEVEFECQRTSRGLEATRVSSRHGGSCQGSTYRPRINRRTRRMRCYNCGEFANHIASECALGPQPKRCHRCRGEDHLHADCPHKNVTQSHSNSKSISNNSSSSAAQEKSEEAT
[3]
  binding: binds

B2: HA-tagged Lin28 (protein, UniProt Q9VRN5 1-195)
chain: MENVQLENGLERRTTSQSSTSSANPANLASPTEECGCVRLGKCKWFNVAKGWGFLTPNDGGQEVFVHQSVIQMSGFRSLGEQEEVEFECQRTSRGLEATRVSSRHGGSCQGSTYRPRINRRTRRMRCYNCGEFANHIASECALGPQPKRCHRCRGEDHLHADCPHKNVTQSHSNSKSISNNSSSSAAQEKSEEAT
[4]
  binding: binds
